Measured values: patent KR20150006756A
No constants are given. Whether binding was seen depends on the method and setting. In cells and extracts the contact can be indirect. Some results given as binding are weak or reduced against the parent protein; the word gives no strength. Tags and fused reporters may be left off the sequences shown.

Columns and labels:
[1] = target: T1, Flag-LRIG1 (UniProt Q96JA1); assay: co-immunoprecipitation: anti-Flag pull-down of Flag-LRIG1 from MKN45 cell lysate, immunoblot with anti-USP8; with and without L3-1Y/IgG2 5 ug/ml for 1 h
T1 sequence (looked up): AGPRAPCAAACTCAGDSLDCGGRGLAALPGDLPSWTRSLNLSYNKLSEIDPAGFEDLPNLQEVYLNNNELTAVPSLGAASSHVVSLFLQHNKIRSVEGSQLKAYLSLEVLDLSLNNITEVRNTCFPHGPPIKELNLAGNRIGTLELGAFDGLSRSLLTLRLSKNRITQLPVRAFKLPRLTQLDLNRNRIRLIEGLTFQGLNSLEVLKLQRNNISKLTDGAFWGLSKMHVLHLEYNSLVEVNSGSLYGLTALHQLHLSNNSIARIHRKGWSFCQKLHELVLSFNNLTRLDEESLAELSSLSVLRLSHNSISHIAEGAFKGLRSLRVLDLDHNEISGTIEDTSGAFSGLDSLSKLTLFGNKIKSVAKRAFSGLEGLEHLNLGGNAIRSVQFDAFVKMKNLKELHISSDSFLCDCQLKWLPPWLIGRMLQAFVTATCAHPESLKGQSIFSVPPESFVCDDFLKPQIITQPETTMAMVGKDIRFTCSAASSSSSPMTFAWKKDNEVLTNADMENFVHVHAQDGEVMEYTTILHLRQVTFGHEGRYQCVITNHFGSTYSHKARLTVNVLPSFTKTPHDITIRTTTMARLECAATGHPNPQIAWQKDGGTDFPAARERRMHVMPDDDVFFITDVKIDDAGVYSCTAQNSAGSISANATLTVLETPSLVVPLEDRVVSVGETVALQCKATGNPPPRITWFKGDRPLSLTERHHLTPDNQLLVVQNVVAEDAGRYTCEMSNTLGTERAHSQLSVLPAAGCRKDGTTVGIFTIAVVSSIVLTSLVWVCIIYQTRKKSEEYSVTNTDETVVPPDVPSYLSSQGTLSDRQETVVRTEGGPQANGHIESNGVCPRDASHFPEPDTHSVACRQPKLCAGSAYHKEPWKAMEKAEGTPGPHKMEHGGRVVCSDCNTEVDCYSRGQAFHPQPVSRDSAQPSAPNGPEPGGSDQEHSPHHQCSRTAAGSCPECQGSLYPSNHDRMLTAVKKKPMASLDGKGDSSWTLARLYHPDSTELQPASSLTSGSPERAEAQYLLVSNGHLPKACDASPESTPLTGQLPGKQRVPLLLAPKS

[2] = target: T1, Flag-LRIG1; assay: co-immunoprecipitation and immunoblot, MKN45 cells overexpressing LRIG1, after anti-c-Met antibody

binding [1]: binds | binding [2]: binds
B1: USP8 (NP_001122082: 서열번호 109) (enzyme)
chain: MPAVASVPKELYLSSSLKDLNKKTEVKPEKISTKSYVHSALKIFKTAEECRLDRDEERAYVLYMKYVTVYNLIKKRPDFKQQQDYFHSILGPGNIKKAVEEAERLSESLKLRYEEAEVRKKLEEKDRQEEAQRLQQKRQETGREDGGTLAKGSLENVLDSKDKTQKSNGEKNEKCETKEKGAITAKELYTMMTDKNISLIIMDARRMQDYQDSCILHSLSVPEEAISPGVTASWIEAHLPDDSKDTWKKRGNVEYVVLLDWFSSAKDLQIGTTLRSLKDALFKWESKTVLRNEPLVLEGGYENWLLCYPQYTTNAKVTPPPRRQNEEVSISLDFTYPSLEESIPSKPAAQTPPASIEVDENIELISGQNERMGPLNISTPVEPVAASKSDVSPIIQPVPSIKNVPQIDRTKKPAVKLPEEHRIKSESTNHEQQSPQSGKVIPDRSTKPVVFSPTLMLTDEEKARIHAETALLMEKNKQEKELRERQQEEQKEKLRKEEQEQKAKKKQEAEENEITEKQQKAKEEMEKKESEQAKKEDKETSAKRGKEITGVKRQSKSEHETSDAKKSVEDRGKRCPTPEIQKKSTGDVPHTSVTGDSGSGKPFKIKGQPESGILRTGTFREDTDDTERNKAQREPLTRARSEEMGRIVPGLPSGWAKFLDPITGTFRYYHSPTNTVHMYPPEMAPSSAPPSTPPTHKAKPQIPAERDREPSKLKRSYSSPDITQAIQEEEKRKPTVTPTVNRENKPTCYPKAEISRLSASQIRNLNPVFGGSGPALTGLRNLGNTCYMNSILQCLCNAPHLADYFNRNCYQDDINRSNLLGHKGEVAEEFGIIMKALWTGQYRYISPKDFKITIGKINDQFAGYSQQDSQELLLFLMDGLHEDLNKADNRKRYKEENNDHLDDFKAAEHAWQKHKQLNESIIVALFQGQFKSTVQCLTCHKKSRTFEAFMYLSLPLASTSKCTLQDCLRLFSKEEKLTDNNRFYCSHCRARRDSLKKIEIWKLPPVLLVHLKRFSYDGRWKQKLQTSVDFPLENLDLSQYVIGPKNNLKKYNLFSVSNHYGGLDGGHYTAYCKNAARQRWFKFDDHEVSDISVSSVKSSAAYILFYTSLGPRVTDVAT
